This experiment can be described thus: qHTS Assay for Modulators of Lamin A Splicing. As to conditions: HeLa LMNA splicing GFP/RFP minigene ratio, 48 h. The method in brief: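 Read-out is the ratio of GFP to DsRed2 object intensity, acquired by 488 nm laser-scanning cytometry on HeLa lamin A-EGFP minigene reporter cells. Compound incubation 48 hrs at 37 °C in Opti-MEM with 2% FBS; DMSO 0.5% final.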

Setting [1] is: measured here: GFP splicing reporter channel.
The mark [2] stands for this setting: measured here: RFP viability control channel.

Molecules are shown by their SMILES. This is one part of the list. The main result of the screen is listed elsewhere. These columns were measured beside it and carry no call. The list favours compounds with an active or inconclusive main result. The note in brackets gives the kind of curve behind each potency; many fits are weak.

With `Oc1ccc(O)c(Cc2nc3ccccc3[nH]2)c1`, the AC50 was 35.5 µM [falling, single point] under setting [1] and 35.5 µM [falling, single point] under setting [2].

Consider `COc1ccc(-c2nnc(SC(C)C(=O)Nc3c(C)n(C)n(-c4ccccc4)c3=O)o2)cc1` (stereo unspecified), for which the AC50 under setting [2] was 0.316 µM [falling, full curve, poor fit].

On to `CCOC(=O)c1c(NC(=O)C(C)Sc2cccc[n+]2[O-])sc2c1CCN(Cc1ccccc1)C2` (stereo unspecified), for which the concentration at half-maximal activity (AC50) is 12.6 µM [rising, single point] under setting [1] and 25.1 µM [rising, single point] under setting [2].

`O=C(NCc1ccco1)C1CCN(c2ccc(S(=O)(=O)N3CCOCC3)cc2[N+](=O)[O-])CC1`: the AC50 under setting [2] was 0.794 µM [falling, full curve].

Turning to `CC1NC(=S)N(C2CCCCC2)C1=O` (stereo unspecified), the half-maximal activity concentration (AC50) under setting [1] is 35.5 µM [falling, single point].

In the case of `CS(=O)(=O)Nc1ccc(C2=NN(C(=O)c3ccco3)C(c3ccc(F)cc3)C2)cc1` (stereo unspecified), the AC50 under setting [2] was 6.31 µM [falling, partial curve, poor fit].

For `O=C(COC(=O)c1c2c(nc3ccccc13)CCN(Cc1ccccc1)C2)Nc1c(F)cccc1F`, the AC50 is, setting by setting: under setting [1], 17.8 µM [rising, single point]; under setting [2], 12.6 µM [rising, single point].

For `COc1cc(-c2nc3ccc(C)cn3c2Nc2ccc3c(c2)OCCO3)ccc1O`, the AC50 was 14.1 µM [rising, single point] under setting [1] and 15.8 µM [rising, partial curve] under setting [2].

As for `CC1Cc2ccccc2N1Cc1nc2cc(Cl)ccc2c(=O)[nH]1` (stereo unspecified), the concentration at half-maximal activity (AC50) under setting [2] is 35.5 µM [rising, single point].

With `Cc1ccc(/C(N)=N/OC(=O)c2ccc3c(c2)OCO3)cc1`, the concentration at half-maximal activity (AC50) runs as follows: under setting [1], 17.8 µM [falling, single point]; under setting [2], 15.8 µM [falling, single point].

For the compound `COc1ccc([N+](=O)[O-])cc1NC(=S)NC(NC(=O)C(c1ccccc1)c1ccccc1)C(Cl)(Cl)Cl` (stereo unspecified), under setting [2], the AC50 was 12.6 µM [rising, partial curve].

As to `COc1ccc(/C=C/C(=O)OCC(=O)NCC2CCCO2)cc1` (stereo unspecified), the AC50 under setting [2] is 0.224 µM [rising, full curve, poor fit].

For the compound `Cc1ccc(CNC(=O)CSc2nc3c(sc4ccccc43)c(=O)n2CCCOC(C)C)cc1`, the concentration at half-maximal activity (AC50) reads like this: under setting [1], 15.8 µM [rising, single point]; under setting [2], 31.6 µM [rising, single point].

As for `Cc1ccc(S(=O)(=O)N2CCCC(C(=O)N3CCCc4ccccc43)C2)cc1` (stereo unspecified), the AC50 runs as follows: under setting [1], 8.91 µM [rising, partial curve, poor fit]; under setting [2], 10 µM [rising, partial curve].

`Cc1ccc(CN2CCC(CNC(=O)c3cnn(-c4ccccc4Cl)c3C3CCN(C(=O)OC(C)(C)C)CC3)CC2)cc1`: the half-maximal activity concentration (AC50) by setting is: under setting [1], 17.8 µM [falling, partial curve, poor fit]; under setting [2], 20 µM [falling, partial curve, poor fit].

Consider `Cn1cccc1CC(=O)N/N=C\c1ccccc1`, for which the half-maximal activity concentration (AC50) under setting [1] was 2.82 µM [falling, partial curve, poor fit].

In the case of `O=C(c1ccc(O)cc1)c1ccc(C(=O)c2ccc(O)cc2)cc1`, the AC50 is 0.0158 µM [falling, full curve, poor fit] under setting [1] and 0.0178 µM [falling, full curve, poor fit] under setting [2].

With `O=[N+]([O-])c1ccc(-c2nnc(-c3ccccc3)c(NCCCO)n2)cc1`, the AC50 is 10 µM [rising, partial curve] under setting [1] and 11.2 µM [rising, single point] under setting [2].

With `CCn1c(CNC(=O)c2ccco2)nnc1SCC(=O)c1ccccc1`, the half-maximal activity concentration (AC50) under setting [1] was 0.00447 µM [falling, full curve, poor fit].

Regarding `O=C(Nc1nccs1)C1CC(=O)N(Cc2ccco2)C1` (stereo unspecified), the concentration at half-maximal activity (AC50) under setting [1] was 31.6 µM [rising, single point].

Turning to `COc1ccccc1-c1cncnc1Nc1ccc(F)cc1`, under setting [2], the AC50 was 10 µM [falling, partial curve].

As for `O=C(c1ccc(Br)o1)N1CCN(C/C=C/c2ccccc2)CC1`, the AC50 under setting [2] is 22.4 µM [rising, single point].

On to `O=S(=O)(Nc1ccc(-c2cn3ccsc3n2)cc1)c1ccc2c(c1)OCCO2`, for which the concentration at half-maximal activity (AC50) is 3.55 µM [rising, full curve] under setting [1] and 11.2 µM [rising, partial curve] under setting [2].

As for `Cc1ccc(NS(=O)(=O)c2cc([N+](=O)[O-])ccc2NNC(=S)Nc2cc(C)ccc2C)c(C)c1`, the AC50 under setting [2] is 31.6 µM [rising, single point].

As to `CN(CC(=O)NC(=O)NCc1ccccc1)Cc1ccc(Cl)c(Cl)c1`, the concentration at half-maximal activity (AC50) under setting [1] is 15.8 µM [rising, single point].

With `COc1ccc(S(=O)(=O)N2CCOC2CNC(=O)C(=O)NCCc2c[nH]c3ccccc23)cc1` (stereo unspecified), the AC50 is 14.1 µM [rising, single point] under setting [1] and 22.4 µM [rising, partial curve] under setting [2].

Take `CCOC(=O)N1CCC(NC(=O)CCCN2C(=O)CSc3ncccc32)CC1`: the AC50 under setting [2] was 0.708 µM [falling, full curve, poor fit].

For `COc1ccc(NC(=O)c2c(NCc3cccs3)sc3c2CCC(C)C3)c(OC)c1` (stereo unspecified), the AC50 under setting [1] is 7.08 µM [falling, partial curve, poor fit] and the half-maximal activity concentration (AC50) under setting [2] was 2.82 µM [falling, full curve].

`CCO/C=C/C(O)(CNC(=O)c1ccc(C(C)(C)C)cc1)C(F)(F)F` (stereo unspecified): under setting [2], the half-maximal activity concentration (AC50) was 14.1 µM [rising, single point].

Turning to `COc1cccc(Cn2c(=O)c(CCc3ccccc3)nc3cncnc32)c1`, the AC50 under setting [1] is 22.4 µM [falling, single point].

As to `Cc1ccc2nc(/C(C#N)=C\c3ccc(OC(=O)c4cccs4)cc3)[nH]c2c1`, the AC50 under setting [1] is 35.5 µM [falling, single point] and the AC50 under setting [2] was 35.5 µM [falling, single point].

Turning to `O=C(Nc1n[nH]c(C(F)(F)F)n1)C1CC1`, under setting [2], the AC50 is 0.0282 µM [rising, full curve].

On to `CCOc1cc(/C=N/N=C2/NC(=O)C(CC(=O)O)S2)ccc1OS(=O)(=O)c1ccc(C)cc1` (stereo unspecified), for which the half-maximal activity concentration (AC50) under setting [2] is 0.0562 µM [falling, full curve].

With `O=C(NCCc1ccccc1)c1cnn2c(C(F)F)cc(C3CC3)nc12`, the concentration at half-maximal activity (AC50) under setting [1] was 14.1 µM [rising, single point] and the AC50 under setting [2] was 22.4 µM [rising, single point].

Regarding `CCn1c(CNC(=O)COc2ccc(C(C)C)cc2)nnc1SCC(=O)NC1CCCCC1C` (stereo unspecified), the concentration at half-maximal activity (AC50) under setting [2] is 0.01 µM [rising, full curve, poor fit].

`COc1ccc(/C=N/Nc2cc(C)nc(-n3nc(C)cc3C)n2)cc1`: the AC50 under setting [1] was 31.6 µM [rising, single point] and the AC50 under setting [2] is 31.6 µM [rising, single point].

Regarding `Cc1ccc(S(=O)(=O)Nc2ccc3ncccc3c2)cc1`, the AC50 reads like this: under setting [1], 1.26 µM [rising, full curve]; under setting [2], 2.24 µM [rising, full curve].

Turning to `CCC(C)n1c(SCC(=O)/C(C#N)=C(\C)N)nc2ccccc2c1=O` (stereo unspecified), the AC50 reads like this: under setting [1], 1.26 µM [rising, full curve]; under setting [2], 0.501 µM [rising, full curve].

With `Cc1ccc(-c2nc(CCNC(=O)c3ccc(C)c(C)c3)cs2)cc1`, the AC50 runs as follows: under setting [1], 0.447 µM [falling, full curve, poor fit]; under setting [2], 0.316 µM [falling, full curve].

As for `CN1CCN(c2ncc3nc(-c4cn(C)c5ccccc45)c(=O)n(CCc4ccccc4)c3n2)CC1`, the AC50 runs as follows: under setting [1], 25.1 µM [falling, single point]; under setting [2], 35.5 µM [falling, single point].

On to `COC(=O)[C@@]1(Cc2ccc(F)cc2)[C@H]2c3cc(C(=O)N(C)C)n(Cc4nc5ccccc5[nH]4)c3C[C@H]2CN1C(=O)c1ccccc1`, for which the half-maximal activity concentration (AC50) runs as follows: under setting [1], 15.8 µM [rising, single point]; under setting [2], 35.5 µM [rising, single point].

`O=C(/C=C/c1cccc(OCc2ccccc2)c1)c1cccnc1`: under setting [2], the half-maximal activity concentration (AC50) was 35.5 µM [falling, single point].

On to `Cc1cccc2c1c1ccc3c(c1n2C)C(=O)C=CC3=O`, for which, under setting [2], the concentration at half-maximal activity (AC50) is 35.5 µM [falling, single point].

Consider `CCc1ccc(NC(=O)c2noc(C(C)C)c2[N+](=O)[O-])cc1`, for which, under setting [2], the concentration at half-maximal activity (AC50) was 14.1 µM [falling, single point].

Consider `CCCCC1=CC2=CC(=O)C(C)(OC(=O)CC)C(=O)C2=CN1C(CO)CO` (stereo unspecified), for which, under setting [1], the half-maximal activity concentration (AC50) was 6.31 µM [rising, single point].

With `COc1ccc(Br)cc1CNC(=O)CCCc1cn(C)c2ccccc12`, the concentration at half-maximal activity (AC50) under setting [2] is 17.8 µM [rising, single point].

As to `N=c1c2c(n(Cc3ccccc3)c3c1CCC3)CCC2`, the AC50 was 1.78 µM [rising, full curve] under setting [1] and 2.82 µM [rising, full curve] under setting [2].

Consider `COc1cc2nc(C3CC3)n(NC(=O)c3ccc(Cl)cc3)c(=O)c2cc1OC`, for which, under setting [2], the half-maximal activity concentration (AC50) was 14.1 µM [rising, single point].

As for `COc1ccc(C2Nc3ccccc3C(=O)N2Cc2ccco2)cc1COc1ccc(F)cc1` (stereo unspecified), under setting [2], the half-maximal activity concentration (AC50) was 20 µM [rising, single point].

With `CC(=O)OCC(COC(C)=O)OC(C)=O`, under setting [2], the AC50 is 35.5 µM [rising, single point].

Consider `COc1ccc(N2C(=O)CC(Sc3nc(C)c4c(n3)CCCC4)C2=O)cc1` (stereo unspecified), for which, under setting [2], the AC50 was 10 µM [rising, partial curve, poor fit].

Consider `COc1cc(Nc2ccc(C)cc2)c([N+](=O)[O-])nc1[N+](=O)[O-]`, for which the concentration at half-maximal activity (AC50) under setting [2] was 2.82 µM [rising, partial curve].

Regarding `O=C(CSc1nc2c([nH]c3ccccc32)c(=O)n1-c1ccc(Cl)cc1)N1CCc2ccccc21`, the concentration at half-maximal activity (AC50) under setting [2] is 35.5 µM [falling, single point].

Consider `O=C(COC(=O)/C=C/c1cccc([N+](=O)[O-])c1)NCCCN1CCCC1=O`, for which the AC50 under setting [1] was 0.447 µM [rising, full curve, poor fit].

For the origin of these results see PubChem BioAssay AID1487 (National Center for Advancing Translational Sciences (NCATS), 2009).
